# Assay results from patent US7001735B2, “Glucose transporter/sensor protein and uses thereof” (Albert Einstein College of Medicine of Yeshiva University, priority 2000, dated 2006).
# At least one compound was matched to its structure with a doubt left.
# Key:
# GLUTx [1] = test: GLUTx expression in MTLn3 cells cultured with BRL49653 (immunostaining and immunoblot); assay type: cell-based; conditions: MTLn3 (metastasizing rat mammary adenocarcinoma) cells, 40 μM, 4 days, vs media plus DMSO vehicle; FIGS. 3 and 4
# GLUTx [2] = test: GLUTx expression in MTC cells cultured with BRL49653 (immunostaining and immunoblot); assay type: cell-based; conditions: MTC (non-metastasizing rat mammary adenocarcinoma) cells, 40 μM, 4 days, vs media plus DMSO vehicle; FIGS. 3 and 4
compound,measurement,setting,value
"CN(CCOc1ccc(CC2SC(=O)NC2=O)cc1)c1ccccn1 (centres unmarked) [BRL49653, rosiglitizone]",expression of GLUTx,GLUTx [1],decrease in GLUTX expression
same,expression of GLUTx,GLUTx [2],expressed more GLUTx
